This note sets out measurements from the supplement of paper PMC10849652.

The chains behind the UniProt entries cited, without tags or fusion partners. Where a name states a change or a piece, a line headed by the entry shows the natural chain unless it says otherwise.
UniProt Q09472, whole entry, looked up: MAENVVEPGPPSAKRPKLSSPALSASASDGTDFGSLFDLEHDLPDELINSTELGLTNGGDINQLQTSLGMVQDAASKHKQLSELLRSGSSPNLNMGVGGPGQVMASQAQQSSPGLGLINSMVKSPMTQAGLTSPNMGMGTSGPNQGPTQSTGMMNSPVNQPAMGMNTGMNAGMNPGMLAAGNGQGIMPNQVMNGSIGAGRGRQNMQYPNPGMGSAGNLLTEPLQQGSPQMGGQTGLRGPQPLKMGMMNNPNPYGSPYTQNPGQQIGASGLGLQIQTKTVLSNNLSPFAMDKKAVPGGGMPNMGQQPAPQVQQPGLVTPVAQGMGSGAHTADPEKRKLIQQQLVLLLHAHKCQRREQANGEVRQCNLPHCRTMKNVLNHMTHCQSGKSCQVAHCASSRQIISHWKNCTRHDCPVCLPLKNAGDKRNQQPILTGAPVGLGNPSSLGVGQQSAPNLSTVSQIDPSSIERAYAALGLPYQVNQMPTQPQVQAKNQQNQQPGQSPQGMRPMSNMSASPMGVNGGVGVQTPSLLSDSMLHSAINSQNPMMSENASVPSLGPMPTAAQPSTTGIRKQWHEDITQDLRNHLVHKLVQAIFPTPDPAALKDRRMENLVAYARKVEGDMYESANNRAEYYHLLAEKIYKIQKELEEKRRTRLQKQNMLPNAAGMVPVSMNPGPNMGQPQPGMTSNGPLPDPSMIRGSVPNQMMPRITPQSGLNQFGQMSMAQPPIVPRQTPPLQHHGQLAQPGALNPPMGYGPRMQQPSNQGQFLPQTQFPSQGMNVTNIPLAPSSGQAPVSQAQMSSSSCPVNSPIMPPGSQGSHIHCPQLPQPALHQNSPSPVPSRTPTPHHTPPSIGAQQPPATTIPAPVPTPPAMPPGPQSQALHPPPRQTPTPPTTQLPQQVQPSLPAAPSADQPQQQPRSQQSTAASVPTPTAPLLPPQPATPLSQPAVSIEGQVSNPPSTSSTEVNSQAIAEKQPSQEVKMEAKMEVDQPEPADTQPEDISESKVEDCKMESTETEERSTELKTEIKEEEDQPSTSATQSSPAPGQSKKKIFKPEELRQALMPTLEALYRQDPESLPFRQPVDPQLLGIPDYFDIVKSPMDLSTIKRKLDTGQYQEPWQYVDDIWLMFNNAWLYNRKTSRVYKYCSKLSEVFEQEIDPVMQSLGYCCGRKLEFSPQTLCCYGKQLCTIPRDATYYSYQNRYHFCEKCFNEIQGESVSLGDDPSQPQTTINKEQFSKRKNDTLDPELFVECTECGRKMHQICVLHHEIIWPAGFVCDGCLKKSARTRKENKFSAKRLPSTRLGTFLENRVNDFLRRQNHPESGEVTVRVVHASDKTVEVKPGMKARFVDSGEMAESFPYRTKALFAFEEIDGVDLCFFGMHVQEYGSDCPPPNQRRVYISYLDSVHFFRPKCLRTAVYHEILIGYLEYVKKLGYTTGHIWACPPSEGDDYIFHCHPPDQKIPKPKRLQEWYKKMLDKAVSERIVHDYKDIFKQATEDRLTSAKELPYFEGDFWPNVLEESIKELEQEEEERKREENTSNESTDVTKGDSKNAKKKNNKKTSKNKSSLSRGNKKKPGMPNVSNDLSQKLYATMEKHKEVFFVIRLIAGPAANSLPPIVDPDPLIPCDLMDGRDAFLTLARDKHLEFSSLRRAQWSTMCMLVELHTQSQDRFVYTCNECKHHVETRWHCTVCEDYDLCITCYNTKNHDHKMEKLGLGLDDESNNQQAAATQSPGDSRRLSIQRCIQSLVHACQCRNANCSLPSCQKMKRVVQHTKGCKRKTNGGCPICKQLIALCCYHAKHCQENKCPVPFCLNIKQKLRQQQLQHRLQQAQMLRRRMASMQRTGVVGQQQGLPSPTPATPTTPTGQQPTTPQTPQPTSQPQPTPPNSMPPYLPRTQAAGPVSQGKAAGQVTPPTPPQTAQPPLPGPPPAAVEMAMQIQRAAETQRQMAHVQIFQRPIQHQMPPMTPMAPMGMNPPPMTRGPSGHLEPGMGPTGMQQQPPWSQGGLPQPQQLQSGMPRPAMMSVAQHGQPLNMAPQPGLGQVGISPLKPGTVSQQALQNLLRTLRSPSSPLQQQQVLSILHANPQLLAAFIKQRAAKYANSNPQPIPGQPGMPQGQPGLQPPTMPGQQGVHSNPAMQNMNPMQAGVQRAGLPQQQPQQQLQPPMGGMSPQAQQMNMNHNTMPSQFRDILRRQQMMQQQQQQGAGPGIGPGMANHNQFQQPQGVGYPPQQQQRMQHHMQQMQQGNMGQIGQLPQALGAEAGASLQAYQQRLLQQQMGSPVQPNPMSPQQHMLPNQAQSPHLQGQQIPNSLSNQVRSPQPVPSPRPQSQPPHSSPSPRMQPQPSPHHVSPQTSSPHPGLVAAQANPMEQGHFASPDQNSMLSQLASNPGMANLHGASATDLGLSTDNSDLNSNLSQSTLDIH
UniProt Q9UBC2: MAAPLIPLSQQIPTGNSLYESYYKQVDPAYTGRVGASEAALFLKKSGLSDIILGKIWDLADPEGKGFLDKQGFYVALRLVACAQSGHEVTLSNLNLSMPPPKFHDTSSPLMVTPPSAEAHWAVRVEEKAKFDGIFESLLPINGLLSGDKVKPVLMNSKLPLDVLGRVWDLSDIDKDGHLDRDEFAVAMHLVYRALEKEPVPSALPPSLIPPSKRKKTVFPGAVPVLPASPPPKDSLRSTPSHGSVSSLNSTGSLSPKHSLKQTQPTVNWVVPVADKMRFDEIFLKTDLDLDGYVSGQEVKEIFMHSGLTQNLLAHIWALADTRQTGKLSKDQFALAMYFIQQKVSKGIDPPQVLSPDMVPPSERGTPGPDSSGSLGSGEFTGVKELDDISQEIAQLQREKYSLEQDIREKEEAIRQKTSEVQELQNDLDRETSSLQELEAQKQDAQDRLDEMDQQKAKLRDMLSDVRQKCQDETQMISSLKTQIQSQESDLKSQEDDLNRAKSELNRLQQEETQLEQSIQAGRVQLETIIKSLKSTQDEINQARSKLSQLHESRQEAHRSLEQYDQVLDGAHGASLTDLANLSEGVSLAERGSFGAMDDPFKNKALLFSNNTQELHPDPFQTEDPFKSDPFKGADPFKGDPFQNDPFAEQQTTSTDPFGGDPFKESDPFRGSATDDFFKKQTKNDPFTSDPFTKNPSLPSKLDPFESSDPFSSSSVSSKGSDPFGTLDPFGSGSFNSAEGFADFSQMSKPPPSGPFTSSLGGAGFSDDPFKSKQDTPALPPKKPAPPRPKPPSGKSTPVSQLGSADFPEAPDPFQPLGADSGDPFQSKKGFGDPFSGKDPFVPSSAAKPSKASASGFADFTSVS
UniProt Q6ZTU2, whole entry, looked up: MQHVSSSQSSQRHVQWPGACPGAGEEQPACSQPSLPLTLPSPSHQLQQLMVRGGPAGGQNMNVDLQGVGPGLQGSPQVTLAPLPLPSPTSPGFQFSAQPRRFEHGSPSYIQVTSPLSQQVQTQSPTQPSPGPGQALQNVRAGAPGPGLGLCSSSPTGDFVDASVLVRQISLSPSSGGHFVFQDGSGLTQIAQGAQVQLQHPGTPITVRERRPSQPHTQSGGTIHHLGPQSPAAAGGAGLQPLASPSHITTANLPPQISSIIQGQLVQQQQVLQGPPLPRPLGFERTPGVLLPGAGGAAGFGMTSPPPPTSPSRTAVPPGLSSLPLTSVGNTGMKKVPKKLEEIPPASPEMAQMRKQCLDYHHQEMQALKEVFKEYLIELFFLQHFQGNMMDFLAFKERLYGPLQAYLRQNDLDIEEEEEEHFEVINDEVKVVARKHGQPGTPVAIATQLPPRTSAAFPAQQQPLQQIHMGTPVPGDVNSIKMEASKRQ
UniProt O75356: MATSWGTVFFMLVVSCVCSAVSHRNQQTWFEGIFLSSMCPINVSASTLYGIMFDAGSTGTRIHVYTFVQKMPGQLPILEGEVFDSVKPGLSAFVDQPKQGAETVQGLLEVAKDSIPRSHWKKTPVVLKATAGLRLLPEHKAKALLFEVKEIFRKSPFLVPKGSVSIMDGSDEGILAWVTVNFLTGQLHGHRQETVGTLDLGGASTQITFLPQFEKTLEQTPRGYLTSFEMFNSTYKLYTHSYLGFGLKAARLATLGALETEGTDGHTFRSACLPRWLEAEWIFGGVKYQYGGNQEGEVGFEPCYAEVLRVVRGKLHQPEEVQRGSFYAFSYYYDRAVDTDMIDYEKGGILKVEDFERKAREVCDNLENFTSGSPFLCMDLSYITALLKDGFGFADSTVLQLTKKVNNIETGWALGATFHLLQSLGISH
UniProt Q0PNE2: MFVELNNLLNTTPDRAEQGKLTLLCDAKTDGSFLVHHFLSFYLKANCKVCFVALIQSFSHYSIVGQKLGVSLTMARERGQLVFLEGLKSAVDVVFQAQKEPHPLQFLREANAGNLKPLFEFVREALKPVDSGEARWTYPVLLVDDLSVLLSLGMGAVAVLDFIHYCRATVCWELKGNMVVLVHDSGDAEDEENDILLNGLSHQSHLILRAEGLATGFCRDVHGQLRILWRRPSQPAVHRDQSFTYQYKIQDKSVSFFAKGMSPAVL
UniProt Q15369, whole entry, looked up: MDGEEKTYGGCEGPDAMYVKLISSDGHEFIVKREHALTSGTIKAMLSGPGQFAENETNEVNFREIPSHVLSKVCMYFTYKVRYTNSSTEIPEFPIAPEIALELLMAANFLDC
UniProt Q32P44: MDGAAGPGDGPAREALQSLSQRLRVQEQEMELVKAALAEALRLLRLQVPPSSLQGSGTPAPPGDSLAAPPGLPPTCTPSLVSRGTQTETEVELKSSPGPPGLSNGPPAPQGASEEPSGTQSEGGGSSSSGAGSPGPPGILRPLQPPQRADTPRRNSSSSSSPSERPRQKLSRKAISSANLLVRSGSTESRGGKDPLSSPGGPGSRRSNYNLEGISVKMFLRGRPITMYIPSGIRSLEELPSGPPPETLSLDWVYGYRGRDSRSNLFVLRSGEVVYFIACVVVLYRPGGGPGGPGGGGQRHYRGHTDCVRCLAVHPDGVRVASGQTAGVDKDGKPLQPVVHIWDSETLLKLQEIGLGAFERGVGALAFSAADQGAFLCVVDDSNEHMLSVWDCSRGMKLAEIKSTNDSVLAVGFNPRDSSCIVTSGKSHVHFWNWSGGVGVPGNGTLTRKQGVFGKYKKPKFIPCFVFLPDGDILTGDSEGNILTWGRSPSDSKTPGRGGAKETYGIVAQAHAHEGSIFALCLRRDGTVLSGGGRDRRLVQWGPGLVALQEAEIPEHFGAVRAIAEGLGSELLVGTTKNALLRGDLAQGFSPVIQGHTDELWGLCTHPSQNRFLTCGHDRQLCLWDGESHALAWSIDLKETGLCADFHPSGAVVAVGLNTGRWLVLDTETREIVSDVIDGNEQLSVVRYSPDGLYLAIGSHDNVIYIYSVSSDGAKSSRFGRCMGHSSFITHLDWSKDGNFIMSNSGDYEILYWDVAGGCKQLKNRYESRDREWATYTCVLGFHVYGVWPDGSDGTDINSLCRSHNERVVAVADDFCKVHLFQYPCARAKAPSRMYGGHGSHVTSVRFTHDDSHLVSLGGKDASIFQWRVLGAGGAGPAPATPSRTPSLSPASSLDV
UniProt Q9P0I2: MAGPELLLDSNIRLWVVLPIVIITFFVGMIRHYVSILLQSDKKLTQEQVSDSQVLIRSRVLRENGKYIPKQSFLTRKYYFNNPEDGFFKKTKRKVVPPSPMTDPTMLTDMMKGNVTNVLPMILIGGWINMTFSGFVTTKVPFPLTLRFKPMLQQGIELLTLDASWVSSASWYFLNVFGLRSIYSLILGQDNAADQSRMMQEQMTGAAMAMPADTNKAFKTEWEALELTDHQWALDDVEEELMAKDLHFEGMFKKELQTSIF
UniProt P54852: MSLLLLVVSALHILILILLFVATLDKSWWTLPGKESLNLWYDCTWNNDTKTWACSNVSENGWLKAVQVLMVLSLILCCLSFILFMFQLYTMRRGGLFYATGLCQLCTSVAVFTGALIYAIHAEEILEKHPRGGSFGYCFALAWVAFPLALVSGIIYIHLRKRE
UniProt Q9BV81: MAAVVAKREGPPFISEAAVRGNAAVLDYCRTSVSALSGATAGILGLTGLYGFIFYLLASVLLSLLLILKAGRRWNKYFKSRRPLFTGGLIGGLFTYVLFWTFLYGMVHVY
UniProt P34913, whole entry, looked up: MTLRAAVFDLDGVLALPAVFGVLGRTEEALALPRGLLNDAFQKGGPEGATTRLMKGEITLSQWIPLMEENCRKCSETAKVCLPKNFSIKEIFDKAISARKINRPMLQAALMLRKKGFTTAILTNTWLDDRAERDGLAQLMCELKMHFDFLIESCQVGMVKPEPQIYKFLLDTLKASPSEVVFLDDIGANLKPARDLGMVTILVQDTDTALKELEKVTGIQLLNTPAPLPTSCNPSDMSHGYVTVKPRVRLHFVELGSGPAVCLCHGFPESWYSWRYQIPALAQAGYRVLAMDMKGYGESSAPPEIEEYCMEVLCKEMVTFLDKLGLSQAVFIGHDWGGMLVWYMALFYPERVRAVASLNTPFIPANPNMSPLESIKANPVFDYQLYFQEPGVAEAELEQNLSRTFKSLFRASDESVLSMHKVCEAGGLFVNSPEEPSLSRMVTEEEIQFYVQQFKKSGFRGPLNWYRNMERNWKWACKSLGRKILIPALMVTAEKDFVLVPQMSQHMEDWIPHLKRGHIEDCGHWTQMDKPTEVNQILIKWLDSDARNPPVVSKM

Some of the results follow.

Compound in one assay: CCCS(=O)(=O)Nc1ccc(F)c(C(=O)c2c[nH]c3ncc(Cl)cc23)c1F
Put plainly: log2 fold change, soluble protein after heating vs DMSO (PISA); higher = thermal stabilisation; K562 lysate, 10 uM; active = over 0.2 and 3.5 SD of the protein, either way, in both replicates (recomputed). Put shortly:
(§1)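 Log-two fold change in thermal stability relative to solvent controls is reported from duplicates. For each sample, crude K562 extract from dounce-homogenised pellets in PBS pH 7.4 with 1 mM MgCl2, at 1 mg/mL protein, was treated with 10 μM compound for 30 min. Aliquots heated for 3 min across 48°C-58°C were pooled, brought to 0.5% NP-40 at 4°C and cleared at 21,000xg for 90 min. The supernatant was quantified by TMTpro 16plex LC-MS/MS with channel sums equalised.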
In the case of EPB41L1 (UniProt Q9H4G0), the log2 fold change is inactive: 0.012.
Still for that read-out and setting: for ELAC2 (UniProt Q9BQ52) the value was inactive: 0.027.
Same read-out and setting: for EIF4B (UniProt P23588) the value was inactive: -0.004; for EIF3F (UniProt O00303), inactive: -0.006; for EIF2D (UniProt P41214), inactive: 0.024.
For EMC2 (UniProt Q15006), the log2 fold change is inactive: -0.023.
On the same count and under the same terms, next, EP300 (UniProt Q09472): inactive: -0.01.
As to EIF5B (UniProt O60841), the log2 fold change is inactive: 0.006.
Take ERCC2 (UniProt P18074): the log2 fold change was inactive: 0.001.
Still for that read-out and setting: for EMC10 (UniProt Q5UCC4) the value was inactive: 0.019; for EML2 isoform 3 (UniProt O95834), inactive: 0.019.
The same measure, in the same setting: for EMC8 (UniProt O43402) the value was inactive: -0.014; for EIF3D (UniProt O15371), inactive: -0.009.
Still for that read-out and setting: next, ENGASE (UniProt Q8NFI3): inactive: 0.05.
As to EPS15L1 isoform 2 (UniProt Q9UBC2), the log2 fold change is inactive: 0.02.
Still for that read-out and setting: next, EP400P1 isoform 6 (UniProt Q6ZTU2): inactive: 0.067; ENTPD5 (UniProt O75356): inactive: 0.036.
Same read-out and setting: next, ELP6 (UniProt Q0PNE2): inactive: 0.022; EIF2B5 (UniProt Q13144): inactive: 0.019.
Still for that read-out and setting: next, EIF3G (UniProt O75821): inactive: 0.008; ELOC (UniProt Q15369): inactive: 0.015; EML3 (UniProt Q32P44): inactive: 0.025.
As to ELOA (UniProt Q14241), the log2 fold change is inactive: 0.009.
Same read-out and setting: for EIF2AK4 (UniProt Q9P2K8) the value was inactive: 0.02.
Still for that read-out and setting: next, EMC3 (UniProt Q9P0I2): inactive: 0.03.
Still for that read-out and setting: for EMP3 (UniProt P54852) the value was inactive: -0.002.
For EMC4 (UniProt Q5J8M3), the log2 fold change was inactive: 0.008.
In the case of EPB41L3 (UniProt Q9Y2J2), the log2 fold change was inactive: 0.003.
As to EIF4EBP2 (UniProt Q13542), the log2 fold change is inactive: -0.09.
On the same count and under the same terms, for ERCC6L (UniProt Q2NKX8) the value was inactive: 0.051.
In the case of EIF4E isoform 2 (UniProt P06730), the log2 fold change is inactive: -0.026.
On the same count and under the same terms, next, EMC6 (UniProt Q9BV81): inactive: -0.084; EIF4A3 (UniProt P38919): inactive: 0.017; EIF3E (UniProt P60228): inactive: 0.015.
On the same count and under the same terms, for EPHX2 (UniProt P34913) the value was inactive: -0.01.

Compound in a further assay: CCN(CCCOc1ccc2c(Nc3cc(CC(=O)Nc4cccc(F)c4)[nH]n3)ncnc2c1)CCOP(=O)(O)O [barasertib]
The description is as above. Put shortly: as §1
Turning to EPB41L1 (UniProt Q9H4G0), the log2 fold change is inactive: -0.044.
On the same count and under the same terms, next, ELAC2 (UniProt Q9BQ52): inactive: -0.028.
The same measure, in the same setting: for EIF4B (UniProt P23588) the value was inactive: -0.024; for EIF3F (UniProt O00303), inactive: 0.019; for EIF2D (UniProt P41214), inactive: 0.017.
As for EMC2 (UniProt Q15006), the log2 fold change was inactive: 0.
As to EP300 (UniProt Q09472), the log2 fold change is inactive: 0.007.
For the target EIF5B (UniProt O60841), the log2 fold change was inactive: -0.035.
Regarding ERCC2 (UniProt P18074), the log2 fold change is inactive: 0.089.
Same read-out and setting: for EMC10 (UniProt Q5UCC4) the value was inactive: 0.097; for EML2 isoform 3 (UniProt O95834), inactive: 0.015; for EMC8 (UniProt O43402), inactive: -0.002.
For EIF3D (UniProt O15371), the log2 fold change was inactive: 0.019.
Still for that read-out and setting: for ENGASE (UniProt Q8NFI3) the value was inactive: 0.003; for EPS15L1 isoform 2 (UniProt Q9UBC2), inactive: -0.035.
The same measure, in the same setting: for EP400P1 isoform 6 (UniProt Q6ZTU2) the value was inactive: 0.006; for ENTPD5 (UniProt O75356), inactive: -0.036; for ELP6 (UniProt Q0PNE2), inactive: 0.029.
In the case of EIF2B5 (UniProt Q13144), the log2 fold change was inactive: 0.013.
The same measure, in the same setting: for EIF3G (UniProt O75821) the value was inactive: -0.115.
Same read-out and setting: next, ELOC (UniProt Q15369): inactive: 0.137; EML3 (UniProt Q32P44): inactive: 0.005.
Take ELOA (UniProt Q14241): the log2 fold change was inactive: -0.052.
The same measure, in the same setting: for EIF2AK4 (UniProt Q9P2K8) the value was inactive: 0.055; for EMC3 (UniProt Q9P0I2), inactive: -0.034; for EMP3 (UniProt P54852), inactive: 0.005.
Still for that read-out and setting: for EMC4 (UniProt Q5J8M3) the value was inactive: 0.138; for EPB41L3 (UniProt Q9Y2J2), inactive: -0.024.
Still for that read-out and setting: next, EIF4EBP2 (UniProt Q13542): inactive: 0.223.
For the target ERCC6L (UniProt Q2NKX8), the log2 fold change was inactive: 0.013.
The same measure, in the same setting: for EIF4E isoform 2 (UniProt P06730) the value was inactive: -0.04; for EMC6 (UniProt Q9BV81), inactive: -0.044.
Regarding EIF4A3 (UniProt P38919), the log2 fold change is inactive: 0.026.
On the same count and under the same terms, next, EIF3E (UniProt P60228): inactive: 0.054.
Same read-out and setting: for EPHX2 (UniProt P34913) the value was inactive: -0.026.
